We go through 2 molecules from patent US20210122805A1 (Bristol-Myers Squibb, published 2021).

Amino acid sequences for entries named in this document (tags omitted). Residues count along the entry.
UniProt Q8NBP7, residues 31-692: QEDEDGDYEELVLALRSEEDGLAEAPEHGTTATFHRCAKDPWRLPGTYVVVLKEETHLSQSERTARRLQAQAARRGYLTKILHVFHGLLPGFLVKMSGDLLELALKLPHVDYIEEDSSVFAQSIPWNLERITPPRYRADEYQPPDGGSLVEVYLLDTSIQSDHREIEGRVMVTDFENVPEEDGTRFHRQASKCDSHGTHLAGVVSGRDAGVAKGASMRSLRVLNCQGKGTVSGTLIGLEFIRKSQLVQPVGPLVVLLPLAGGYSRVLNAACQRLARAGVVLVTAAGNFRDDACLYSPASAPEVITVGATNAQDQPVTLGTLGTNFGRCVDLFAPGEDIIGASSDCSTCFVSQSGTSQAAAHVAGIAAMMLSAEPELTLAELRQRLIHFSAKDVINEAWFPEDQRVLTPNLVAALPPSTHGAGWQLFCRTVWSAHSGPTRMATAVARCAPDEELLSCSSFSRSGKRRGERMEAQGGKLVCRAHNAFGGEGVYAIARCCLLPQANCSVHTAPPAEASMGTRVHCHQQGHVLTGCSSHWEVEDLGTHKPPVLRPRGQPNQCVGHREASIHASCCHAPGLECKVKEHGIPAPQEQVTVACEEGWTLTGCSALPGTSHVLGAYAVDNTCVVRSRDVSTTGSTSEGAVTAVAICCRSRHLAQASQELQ

Results are given in words; binding and its absence hold for the method and conditions named. Some results given as binding are weak or reduced against the parent protein; the word gives no strength.

For test [1], the target named is T1, human PCSK9 (human, UniProt Q8NBP7 31-692). The test is described as follows: PCSK9:ATI-972 FRET assay, 5 nM human PCSK9; displaced competitor: biotinylated ATI-972.
Test [2] addresses T1, human PCSK9. The test is described as follows: PCSK9:EGFA FRET assay, 5 nM PCSK9; displaced ligand: EGFA peptide.

B1: ATI-1174 (designed binder)
chain: MGVSDVPRDLEVVAATPTSLLISWVPPSDDYGYYRITYGETGGNSPVQEFTVPIGKGTATISGLKPGVDYTITVYAVEFPWPHAGYYHRPISINYRTEIEKPCQ
modifications: pegylated (site and PEG size not stated)
notes: also called pegylated anti-PCSK9 Adnectin
For B1, the binding result in the test with human PCSK9 [1] and with human PCSK9 [2] was “binds” throughout.

B2: ATI-1081 (designed binder)
chain: MGVSDVPRDLEVVAATPTSLLISWVPPSDDYGYYRITYGETGGNSPVQEFTVPIGKGTATISGLKPGVDYTITVYAVEFPWPHAGYYHRPISINYRTEIDKPSQHHHHHH
notes: No Fc
With B2, the binding result in the test with human PCSK9 [1] and in the test with human PCSK9 [2] was “binds” throughout.
